Measurements reported in PubChem BioAssay AID1508588 (Peter MacCallum Cancer Centre, 2020).

- Screen: 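Genome-wide search for knock-downs that heighten vemurafenib action in melanoma cells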 (primary screen)
- System: human WM266.4 melanoma cells (BRAF V600 mutant)
- Knock-down reagent: siRNA pool against human genes, 40 nM
- Time to read-out: 96 h from transfection to read-out
- Conditions: vemurafenib 300 nM (about IC25), added 48 h after transfection, for 48 h; comparison arm got DMSO vehicle only
- Detection: 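Cell gain (DAPI nuclei at end minus before drug, mean of two replicates) and medium lactate by absorbance per cell, both as ratio to non-targeting siRNA, also grouped into fold-change classes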
- Direction: cell gain with vemurafenib: higher = more cell gain than with non-targeting siRNA; lactate per cell with vemurafenib: higher = more lactate made per cell
- Hit rule: 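a knock-down counts as enhancing when its fold-change classes with vehicle and with vemurafenib, taken together, show a stronger drug effect on cell gain or lactate per cell; exact class pairs not stated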
- Meaning of the calls: active = enhances vemurafenib effect; inactive = no enhancement seen
The whole screen tested about 18,000 reagents; this is a random part of them. 790 of them (4.4%) were called active. 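Calls rest on a combination of fold-change classes in drug and vehicle arms, not all shown here.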 A reagent listed more than once was tested more than once; the source does not tell the runs apart.

| gene knocked down | cell gain with vemurafenib | lactate per cell with vemurafenib | activity call |
| --- | --- | --- | --- |
| SH3D19 (GeneID 152503) | 0.4 | 0.95 | inactive |
| OR8H2 (GeneID 390151) | 0.37 | 0.9 | inactive |
| NKAP (GeneID 79576) | 0.49 | 0.54 | inactive |
| DNAAF5 (GeneID 54919) | 0.82 | 0.74 | inactive |
| NR0B2 (GeneID 8431) | 0.7 | 0.18 | inactive |
| OR4S1 (GeneID 256148) | 0.8 | 0.57 | inactive |
| TWF1 (GeneID 5756) | 0.94 | 0.91 | inactive |
| SQSTM1 (GeneID 8878) | 0.45 | 1.16 | inactive |
| NAA10 (GeneID 8260) | 0.51 | 1.26 | inactive |
| ZNF322P1 (GeneID 387328) | 0.17 | 1.44 | inactive |
| AIF1 (GeneID 199) | 0.52 | 0.7 | inactive |
| BRSK1 (GeneID 84446) | 0.72 | 1.6 | inactive |
| BRSK1 (GeneID 84446) | 0.69 | 1.82 | inactive |
| FBXL18 (GeneID 80028) | 1.23 | 0.86 | inactive |
| HTR3C (GeneID 170572) | 0.53 | 0.86 | inactive |
| LMF1 (GeneID 64788) | 0.75 | 0.32 | inactive |
| KRTAP6-2 (GeneID 337967) | 0.36 | 1.21 | inactive |
| RNF39 (GeneID 80352) | 1.02 | 0.72 | inactive |
| SLC12A4 (GeneID 6560) | 0.88 | 0.46 | inactive |
| EMSY (GeneID 56946) | 0.43 | 1.44 | inactive |
| SLC19A1 (GeneID 6573) | 0.66 | 1.59 | inactive |
| OPLAH (GeneID 26873) | 0.1 | 1.56 | inactive |
| BMPER (GeneID 168667) | 0.04 | 1.12 | inactive |
| RPP38 (GeneID 10557) | 0.55 | 0.81 | inactive |
| LIM2 (GeneID 3982) | 0.43 | 1.6 | inactive |
| TBC1D16 (GeneID 125058) | 0.8 | 0.66 | inactive |
| H2AC17 (GeneID 8336) | 0.3 | 0.17 | active |
| ZNF695 (GeneID 57116) | 0.53 | 1.02 | inactive |

Part of the list above in another layout:
TWF1 (GeneID 5756) — cell gain with vemurafenib: 0.94; lactate per cell with vemurafenib: 0.91; activity call: inactive
SQSTM1 (GeneID 8878) — cell gain with vemurafenib: 0.45; lactate per cell with vemurafenib: 1.16; activity call: inactive
NAA10 (GeneID 8260) — cell gain with vemurafenib: 0.51; lactate per cell with vemurafenib: 1.26; activity call: inactive
ZNF322P1 (GeneID 387328) — cell gain with vemurafenib: 0.17; lactate per cell with vemurafenib: 1.44; activity call: inactive
AIF1 (GeneID 199) — cell gain with vemurafenib: 0.52; lactate per cell with vemurafenib: 0.7; activity call: inactive
BRSK1 (GeneID 84446) — cell gain with vemurafenib: 0.72; lactate per cell with vemurafenib: 1.6; activity call: inactive

Next entries follow.
| gene knocked down | cell gain with vemurafenib | lactate per cell with vemurafenib | activity call |
| --- | --- | --- | --- |
| TTYH3 (GeneID 80727) | 0.46 | 0.95 | inactive |
| SLC15A4 (GeneID 121260) | 0.99 | 0.44 | inactive |
| EXOC8 (GeneID 149371) | 1.21 | 0.88 | inactive |
| WDR37 (GeneID 22884) | 0.47 | 0.5 | inactive |
| PIEZO2 (GeneID 63895) | 0.74 | -0.02 | active |
| HELZ2 (GeneID 85441) | 0.58 | 1.48 | inactive |
| FGF17 (GeneID 8822) | 1.1 | 0.64 | inactive |
| CA14 (GeneID 23632) | 0.12 | 1.22 | inactive |
| LDOC1 (GeneID 23641) | 0.52 | 0.92 | inactive |
| TRPV2 (GeneID 51393) | 0.39 | 0.72 | inactive |
| UBE2T (GeneID 29089) | 0.07 | 1.54 | inactive |
| GRB10 (GeneID 2887) | 0.29 | 1.16 | inactive |
| MAD2L2 (GeneID 10459) | 0.33 | 0.92 | inactive |
| TFE3 (GeneID 7030) | 1.1 | 1.06 | inactive |
| OR4A5 (GeneID 81318) | 0.6 | 0.77 | inactive |
| HILPDA (GeneID 29923) | 0.75 | 0.98 | inactive |
| CYB5R5 (GeneID 606495) | 0.45 | 1.17 | inactive |
| SETD4 (GeneID 54093) | 0.28 | 0.76 | inactive |
| SIPA1L1 (GeneID 26037) | 0.35 | 0.69 | inactive |
| NR0B1 (GeneID 190) | 0.86 | 0.37 | inactive |
| RUNDC1 (GeneID 146923) | 0.51 | 0.63 | inactive |
| MIMS2 (GeneID 116151) | 0.23 | 0.93 | inactive |
| OR4X1 (GeneID 390113) | 0.64 | 1.4 | inactive |
| OR7G3 (GeneID 390883) | 0.23 | 0.84 | inactive |
| ICOSLG (GeneID 23308) | 0.75 | 0.75 | inactive |
| PJA1 (GeneID 64219) | 1.13 | 0.92 | inactive |
| ALG1L1P (GeneID 200810) | 0.81 | 1.15 | inactive |
| F12 (GeneID 2161) | 0.61 | 1.27 | inactive |
| USP48 (GeneID 84196) | 0.97 | 0.68 | inactive |
